# Over roughly 33,000 sequences, “E-score (-0.5 to 0.5)” has its median near -0.016; the highest 2% begin near 0.3. The list shows a part of the results.
# Target: T1, Yer184c (UniProt P39961)
# T1 sequence: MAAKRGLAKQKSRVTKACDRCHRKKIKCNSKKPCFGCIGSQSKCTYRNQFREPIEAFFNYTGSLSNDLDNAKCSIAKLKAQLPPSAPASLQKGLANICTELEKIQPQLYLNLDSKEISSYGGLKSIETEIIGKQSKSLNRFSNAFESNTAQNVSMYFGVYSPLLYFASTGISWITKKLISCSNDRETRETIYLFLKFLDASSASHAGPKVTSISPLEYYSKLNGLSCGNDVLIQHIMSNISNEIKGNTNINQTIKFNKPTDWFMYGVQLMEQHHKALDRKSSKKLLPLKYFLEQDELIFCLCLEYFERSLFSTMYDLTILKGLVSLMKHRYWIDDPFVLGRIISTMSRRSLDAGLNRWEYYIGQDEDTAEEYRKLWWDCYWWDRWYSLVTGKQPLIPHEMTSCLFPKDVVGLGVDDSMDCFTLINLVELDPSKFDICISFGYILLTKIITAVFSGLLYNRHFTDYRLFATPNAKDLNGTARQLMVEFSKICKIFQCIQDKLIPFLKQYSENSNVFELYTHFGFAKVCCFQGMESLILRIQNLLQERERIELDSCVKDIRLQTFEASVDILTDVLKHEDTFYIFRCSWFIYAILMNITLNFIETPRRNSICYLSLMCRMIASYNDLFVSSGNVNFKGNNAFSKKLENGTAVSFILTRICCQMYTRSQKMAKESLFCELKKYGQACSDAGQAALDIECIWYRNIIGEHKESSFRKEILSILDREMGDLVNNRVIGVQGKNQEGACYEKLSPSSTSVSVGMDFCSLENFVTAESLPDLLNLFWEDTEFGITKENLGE
# Experiment: PBM E-score (8-mer binding enrichment) (E-score (-0.5 to 0.5)); higher = stronger / more preferred TF binding
# Details: protein concentration: 100 nM; construct: GST-full length
# Protocol: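 Universal 'all 10-mer' protein binding microarrays (Agilent AMADID 015681) probed with GST-tagged S. cerevisiae TFs (full-length or DBD) made by in vitro transcription/translation (PURExpress), about 100-200 nM. Bound TF was detected with fluorescent anti-GST. Each ungapped 8-mer (which stands for itself and its reverse complement) is scored by the PBM enrichment score (E-score), a modified Wilcoxon-Mann-Whitney statistic from -0.5 to +0.5, computed with the Universal PBM Analysis Suite. Scale: above 0.35 generally sequence-specific binding.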
row,Sequence,PBM E-score
1,AACGTGGC,-0.0733
2,ACTCGGGA,0.199
3,CGATCCGC,0.113
4,AGTATTAC,0.121
5,CGGTAAAA,0.305
6,GACCTGCC,-0.157
7,CACTAACG,-0.188
8,CCTTCCTC,-0.149
9,GAATATTC,0.258
10,GCGTGACC,-0.11
11,AAGCCCAA,-0.106
12,CACAGAGA,-0.113
13,CAATCTAG,0.0865
14,CAACCGGA,0.373
15,TGAGCTCA,0.189
16,CACATGTG,-0.323
17,CATCAACA,0.0974
18,AATGTCCG,0.283
19,AGACTGGA,-0.118
20,CCCTCAGG,-0.239
21,ATGATGTC,0.088
22,ACTGAAAT,0.119
23,AGTTACTG,0.00807
24,AGAAATGG,-0.138
25,CCTGGCTA,-0.244

# Nothing new here: an excerpt of the list.
row,Sequence,PBM E-score
14,CAACCGGA,0.373
15,TGAGCTCA,0.189
16,CACATGTG,-0.323
17,CATCAACA,0.0974
18,AATGTCCG,0.283

# The list continues:

row,Sequence,PBM E-score
1,CACAAGGC,-0.303
2,CAGGAGTC,-0.148
3,GGCTAATA,0.0926
4,AGAAAGGG,-0.00464
5,CAAGCGCG,-0.0813
6,AGGAGGTG,-0.237
7,CGAGATCC,0.0773
8,ACAAGCTG,0.0583
9,CACCTAAA,0.0424
10,AAGCAGTA,-0.209
11,GCGTAGCC,-0.215
12,CATGGTCA,-0.00543
13,ATCGAGAA,0.0896
14,AGTCACGG,0.176
15,AGGCGCAT,-0.0726
16,CTAATTCC,0.216
17,CACACGCC,-0.0346
18,GTCTTCTA,0.0141
19,CGCTTTGC,0.128
20,ACGTCCCG,-0.0216
21,GATAGGCC,-0.147
22,GATTACCC,0.12
23,CAAAATCG,0.0713
24,CCTAAGGC,-0.241
25,GACCCGAA,0.127

row,Sequence,PBM E-score
1,CAATCATG,-0.0132
2,ACCATGCA,-0.0738
3,GATTCGCA,0.131
4,GCGAGACA,-0.188
5,CAATCATC,-0.0321
6,AGTTCTGG,-0.0406
7,ACCGCCAT,-0.187
8,AAGCCCAC,-0.139
9,CTTCGCCA,-0.116
10,ACAATGGC,-0.106
11,GTACTGAA,0.223
12,CTGGCCGA,0.129
13,ACGCGTCC,0.028
14,AGCATTTA,0.0356
15,CTGGCAGC,-0.174
16,CGGATCCC,0.171
17,AGACTTGC,-0.146
18,AGCACCGC,-0.26
19,AGCTGAAG,0.0187
20,TCATTCAA,0.162
21,GGAGTGAA,-0.0205
22,GTGTCGGA,0.132
23,TAGAAGCA,0.0361
24,AGGTGTTG,-0.186
25,ACCGCACC,7e-05

# Rewritten as tab-separated lines: entries from further up
row	Sequence	PBM E-score
23	TAGAAGCA	0.0361
24	AGGTGTTG	-0.186
25	ACCGCACC	7e-05

# Next records.

row,Sequence,PBM E-score
1,AACCATAA,-0.0372
2,CCCAAACC,0.00882
3,CAATAATA,0.229
4,AAGTGGAA,0.00951
5,CAGCCTTA,-0.0157
6,CGAACCTC,0.0484
7,AACGGTGC,0.0104
8,ACTGGGCC,0.00476
9,GGGACCTA,-0.0677
10,CGCACACG,-0.0376
11,AGAGTCTA,-0.168
12,ATTTAAAA,0.189
13,GTCAAGAA,0.0525
14,ATTGTGAC,-0.0637
15,CTGAGGGA,-0.138
16,GCAGTTTA,-0.0641
17,GTACGCAA,-0.067
18,CCCGGCAC,0.0863
19,CCCAAGTA,-0.184
20,CTAGCAGA,-0.00329
21,AATCAAGG,0.00846
22,GGCATCAC,-0.113
23,GGTATCAC,-0.105
24,GTACAGCA,-0.00641
25,ATACACAT,0.0238

row,Sequence,PBM E-score
1,ACAGATAC,0.132
2,AGGTTTTC,0.0522
3,AGCCTAGG,-0.143
4,ACCTTAAA,0.0181
5,AATTCGGT,0.301
6,GTCACCTA,-0.292
7,GTCAGTCA,-0.0772
8,CTGTATAC,0.119
9,ACTTAATC,0.125
10,ACGATTGC,0.116
11,AAAGCGAC,0.0442
12,GGGAATAA,0.125
13,ATAAAAAG,0.205
14,CCATCGCC,-0.018
15,CACGGTGC,0.0187
16,ACGACCCG,0.0884
17,ACGGGGGA,-0.252
18,CCTATACA,-0.0663
19,CGTCCCCA,-0.276
20,GGATTTGA,0.0506
21,CTCTGCAC,-0.192
22,AATACGCC,0.0638
23,AAAGCACT,-0.0205
24,CCGCTATC,-0.0075
25,GACGGTTA,-0.145

row,Sequence,PBM E-score
1,ACAAGGAT,0.0231
2,GAATAATA,0.234
3,ACGGAACC,0.329
4,CTACGTAC,0.0379
5,CTGGTGAA,-0.0403
6,CATTATCG,0.0346
7,ATCGGTCA,0.0109
8,AAGGTACA,-0.102
9,AAAAGTCA,-0.0775
10,CGCTAAAG,-0.0461
11,ACTTGTGC,-0.103
12,CAAAGAGA,0.0946
13,ATAACTCC,0.0294
14,AAATCCTC,-0.0657
15,TCGTTGAA,0.0561
16,GCTGGCCC,-0.374
17,CTTTACAC,0.12
18,AGATATGC,-0.0109
19,CAGCAGAG,-0.138
20,AAGCGTCC,-0.0369
21,CTGCACCC,-0.153
22,CGAGGAAA,0.177
23,ATGACGGC,0.0199
24,CTATTTTC,0.144
25,GCGCTGAC,-0.106

row,Sequence,PBM E-score
1,CATATACA,0.175
2,ACCGAGCT,0.206
3,GGATGCCC,-0.125
4,CTAGGTAC,-0.0435
5,ATGGTCAA,0.0563
6,CGCAGACA,-0.00145
7,CATAGTGA,-0.0892
8,CATCCCAG,-0.114
9,ATATTCCA,0.16
10,CACGTATG,0.0807
11,CGGAATCA,0.306
12,GGCCTTCA,-0.0859
13,AAATGGAG,0.043
14,CGTACCGC,0.028
15,ACACGGGA,-0.00121
16,AACCGACA,0.212
17,CAATTTGG,-0.0376
18,GCTTGTCA,0.174
19,CTCCCACA,-0.184
20,AACACTTC,0.0993
21,ACCACCCT,-0.179
22,CTATGGGC,-0.148
